According to the supplement of paper PMC10849652:
This is one part of the list.

By UniProt entry, the sequences of proteins in these tests, tags left out. Where a name states a change or a piece, a line headed by the entry shows the natural chain unless it says otherwise.
UniProt Q9HCN8: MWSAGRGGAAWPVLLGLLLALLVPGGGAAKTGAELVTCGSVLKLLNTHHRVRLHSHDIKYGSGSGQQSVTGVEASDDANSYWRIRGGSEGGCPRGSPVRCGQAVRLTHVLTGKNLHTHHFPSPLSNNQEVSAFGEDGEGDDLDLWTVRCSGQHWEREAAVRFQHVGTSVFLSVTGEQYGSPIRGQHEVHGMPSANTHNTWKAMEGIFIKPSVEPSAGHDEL
UniProt Q9Y3B9: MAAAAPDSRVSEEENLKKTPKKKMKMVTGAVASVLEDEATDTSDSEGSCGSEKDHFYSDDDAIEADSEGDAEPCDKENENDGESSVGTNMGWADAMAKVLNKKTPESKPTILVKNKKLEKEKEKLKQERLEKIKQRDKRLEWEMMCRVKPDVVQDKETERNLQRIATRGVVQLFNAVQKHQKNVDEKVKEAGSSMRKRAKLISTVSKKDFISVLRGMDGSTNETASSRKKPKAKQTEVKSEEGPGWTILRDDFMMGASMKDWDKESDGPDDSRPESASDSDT
UniProt P31040: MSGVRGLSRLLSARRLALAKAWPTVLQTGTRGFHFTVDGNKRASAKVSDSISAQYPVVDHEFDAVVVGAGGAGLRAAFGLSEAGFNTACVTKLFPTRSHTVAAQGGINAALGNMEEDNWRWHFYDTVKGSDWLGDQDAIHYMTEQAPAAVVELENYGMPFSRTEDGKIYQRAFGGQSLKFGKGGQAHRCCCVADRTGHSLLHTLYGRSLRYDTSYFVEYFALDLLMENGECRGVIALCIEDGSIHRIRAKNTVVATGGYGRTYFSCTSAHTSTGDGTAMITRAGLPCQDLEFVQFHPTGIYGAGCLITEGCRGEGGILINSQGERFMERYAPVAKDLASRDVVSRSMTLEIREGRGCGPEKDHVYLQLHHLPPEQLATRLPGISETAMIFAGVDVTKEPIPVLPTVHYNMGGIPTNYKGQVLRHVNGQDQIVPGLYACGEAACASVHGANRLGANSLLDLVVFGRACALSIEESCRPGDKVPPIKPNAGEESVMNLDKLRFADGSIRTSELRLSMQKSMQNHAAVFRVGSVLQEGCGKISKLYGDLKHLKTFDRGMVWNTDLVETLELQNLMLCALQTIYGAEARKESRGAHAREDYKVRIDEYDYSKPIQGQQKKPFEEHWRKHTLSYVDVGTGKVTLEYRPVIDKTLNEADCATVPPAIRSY
UniProt Q9NQC3: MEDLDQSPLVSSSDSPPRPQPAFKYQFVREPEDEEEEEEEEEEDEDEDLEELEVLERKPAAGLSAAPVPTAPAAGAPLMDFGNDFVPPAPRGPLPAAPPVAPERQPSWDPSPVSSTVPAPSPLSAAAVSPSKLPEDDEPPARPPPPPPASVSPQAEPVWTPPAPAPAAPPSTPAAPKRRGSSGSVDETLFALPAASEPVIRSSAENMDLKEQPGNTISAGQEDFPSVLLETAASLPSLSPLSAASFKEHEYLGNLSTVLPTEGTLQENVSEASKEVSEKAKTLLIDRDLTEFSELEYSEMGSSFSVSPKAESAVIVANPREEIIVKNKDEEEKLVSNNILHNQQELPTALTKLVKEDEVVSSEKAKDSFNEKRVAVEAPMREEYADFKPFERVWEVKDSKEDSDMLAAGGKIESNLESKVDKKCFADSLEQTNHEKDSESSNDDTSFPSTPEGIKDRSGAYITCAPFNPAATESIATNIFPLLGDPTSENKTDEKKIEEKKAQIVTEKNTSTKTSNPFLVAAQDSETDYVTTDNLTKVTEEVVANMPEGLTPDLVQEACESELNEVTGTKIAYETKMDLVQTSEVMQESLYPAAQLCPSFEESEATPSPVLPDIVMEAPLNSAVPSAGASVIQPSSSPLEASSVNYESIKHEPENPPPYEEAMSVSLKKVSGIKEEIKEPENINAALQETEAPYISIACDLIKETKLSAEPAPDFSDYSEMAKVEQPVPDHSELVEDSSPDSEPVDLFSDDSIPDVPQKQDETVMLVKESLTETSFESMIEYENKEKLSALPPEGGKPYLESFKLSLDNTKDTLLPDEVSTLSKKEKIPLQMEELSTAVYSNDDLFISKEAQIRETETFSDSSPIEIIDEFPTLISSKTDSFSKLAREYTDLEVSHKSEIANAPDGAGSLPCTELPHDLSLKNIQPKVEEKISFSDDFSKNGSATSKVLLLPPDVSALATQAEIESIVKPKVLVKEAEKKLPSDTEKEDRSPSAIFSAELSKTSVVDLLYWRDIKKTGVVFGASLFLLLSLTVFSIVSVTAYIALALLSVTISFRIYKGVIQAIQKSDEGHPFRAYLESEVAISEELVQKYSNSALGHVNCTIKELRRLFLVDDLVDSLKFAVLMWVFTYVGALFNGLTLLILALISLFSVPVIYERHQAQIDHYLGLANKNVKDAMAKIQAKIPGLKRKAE
UniProt Q9Y230, whole entry, looked up: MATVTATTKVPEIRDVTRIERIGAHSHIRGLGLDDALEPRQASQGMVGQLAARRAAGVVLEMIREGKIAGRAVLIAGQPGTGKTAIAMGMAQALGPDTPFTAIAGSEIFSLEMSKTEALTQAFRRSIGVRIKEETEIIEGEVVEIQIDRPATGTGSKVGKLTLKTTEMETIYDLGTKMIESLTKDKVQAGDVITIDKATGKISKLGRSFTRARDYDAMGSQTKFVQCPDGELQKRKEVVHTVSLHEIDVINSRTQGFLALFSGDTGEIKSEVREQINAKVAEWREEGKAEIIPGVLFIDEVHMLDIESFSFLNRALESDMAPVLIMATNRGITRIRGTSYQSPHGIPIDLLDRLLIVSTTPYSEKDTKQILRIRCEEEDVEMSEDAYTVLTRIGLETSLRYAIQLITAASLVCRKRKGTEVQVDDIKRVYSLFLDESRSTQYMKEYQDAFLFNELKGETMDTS
UniProt O75880: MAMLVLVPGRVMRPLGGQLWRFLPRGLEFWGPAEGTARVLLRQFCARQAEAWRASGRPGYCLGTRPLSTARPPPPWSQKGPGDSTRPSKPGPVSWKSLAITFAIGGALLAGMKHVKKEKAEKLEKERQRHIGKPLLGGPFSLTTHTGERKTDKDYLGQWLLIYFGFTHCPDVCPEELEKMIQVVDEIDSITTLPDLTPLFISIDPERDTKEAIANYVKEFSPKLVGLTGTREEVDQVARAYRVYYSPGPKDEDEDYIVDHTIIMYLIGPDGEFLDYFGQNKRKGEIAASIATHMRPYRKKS
UniProt Q9Y6B6: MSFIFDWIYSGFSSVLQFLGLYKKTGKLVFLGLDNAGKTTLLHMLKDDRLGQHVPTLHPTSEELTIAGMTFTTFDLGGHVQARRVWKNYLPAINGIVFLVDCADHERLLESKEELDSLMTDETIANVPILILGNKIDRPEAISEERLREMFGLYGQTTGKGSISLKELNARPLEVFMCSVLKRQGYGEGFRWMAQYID
UniProt Q6UWP8: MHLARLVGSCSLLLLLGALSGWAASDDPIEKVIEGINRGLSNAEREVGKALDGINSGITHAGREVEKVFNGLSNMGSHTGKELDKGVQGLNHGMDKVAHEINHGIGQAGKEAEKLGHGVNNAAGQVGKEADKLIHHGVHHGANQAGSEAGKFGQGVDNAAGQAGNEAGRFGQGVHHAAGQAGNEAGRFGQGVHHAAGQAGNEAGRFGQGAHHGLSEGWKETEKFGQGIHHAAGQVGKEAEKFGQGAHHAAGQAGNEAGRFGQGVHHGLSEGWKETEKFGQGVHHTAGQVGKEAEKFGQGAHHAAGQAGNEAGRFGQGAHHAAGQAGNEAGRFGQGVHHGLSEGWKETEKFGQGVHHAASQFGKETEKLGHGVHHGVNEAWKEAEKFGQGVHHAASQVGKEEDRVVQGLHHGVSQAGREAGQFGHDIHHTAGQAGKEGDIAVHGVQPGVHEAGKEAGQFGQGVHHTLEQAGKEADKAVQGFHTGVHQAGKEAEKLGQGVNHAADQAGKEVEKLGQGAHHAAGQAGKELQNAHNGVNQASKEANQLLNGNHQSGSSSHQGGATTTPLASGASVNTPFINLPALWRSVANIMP
UniProt A3KN83: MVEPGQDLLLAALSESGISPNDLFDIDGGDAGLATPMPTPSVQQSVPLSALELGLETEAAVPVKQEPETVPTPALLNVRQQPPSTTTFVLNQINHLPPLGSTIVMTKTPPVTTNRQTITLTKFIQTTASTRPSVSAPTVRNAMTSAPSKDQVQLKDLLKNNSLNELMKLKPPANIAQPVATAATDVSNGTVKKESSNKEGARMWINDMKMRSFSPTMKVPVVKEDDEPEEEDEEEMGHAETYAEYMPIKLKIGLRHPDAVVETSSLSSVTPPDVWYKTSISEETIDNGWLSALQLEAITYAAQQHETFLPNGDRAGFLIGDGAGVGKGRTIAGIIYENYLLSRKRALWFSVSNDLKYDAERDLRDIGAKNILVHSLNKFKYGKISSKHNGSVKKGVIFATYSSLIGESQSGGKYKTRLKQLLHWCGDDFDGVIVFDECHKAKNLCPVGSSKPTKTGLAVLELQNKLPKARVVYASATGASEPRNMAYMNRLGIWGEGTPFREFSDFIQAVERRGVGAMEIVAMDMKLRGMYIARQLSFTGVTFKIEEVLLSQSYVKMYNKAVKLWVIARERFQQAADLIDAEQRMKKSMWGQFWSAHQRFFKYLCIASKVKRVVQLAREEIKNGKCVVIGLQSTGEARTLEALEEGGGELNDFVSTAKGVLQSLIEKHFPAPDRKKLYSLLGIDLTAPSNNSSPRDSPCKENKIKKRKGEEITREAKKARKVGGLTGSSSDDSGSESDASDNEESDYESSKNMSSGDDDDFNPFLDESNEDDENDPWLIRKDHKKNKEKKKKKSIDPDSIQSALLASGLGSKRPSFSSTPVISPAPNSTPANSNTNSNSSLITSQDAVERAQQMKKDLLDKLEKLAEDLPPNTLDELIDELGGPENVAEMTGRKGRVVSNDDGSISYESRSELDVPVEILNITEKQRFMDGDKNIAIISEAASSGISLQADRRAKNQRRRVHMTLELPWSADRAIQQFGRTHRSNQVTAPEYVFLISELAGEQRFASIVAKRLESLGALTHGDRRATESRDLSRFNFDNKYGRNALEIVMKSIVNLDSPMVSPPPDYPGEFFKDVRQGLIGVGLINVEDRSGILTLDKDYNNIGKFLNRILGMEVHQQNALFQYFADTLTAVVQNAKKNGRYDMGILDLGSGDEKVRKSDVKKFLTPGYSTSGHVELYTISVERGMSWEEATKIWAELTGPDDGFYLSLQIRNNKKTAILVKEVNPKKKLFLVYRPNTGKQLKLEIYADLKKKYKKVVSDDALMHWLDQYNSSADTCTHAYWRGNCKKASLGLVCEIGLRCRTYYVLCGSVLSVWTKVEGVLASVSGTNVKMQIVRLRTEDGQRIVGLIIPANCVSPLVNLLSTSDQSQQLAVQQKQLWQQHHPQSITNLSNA
UniProt Q9Y265, whole entry, looked up: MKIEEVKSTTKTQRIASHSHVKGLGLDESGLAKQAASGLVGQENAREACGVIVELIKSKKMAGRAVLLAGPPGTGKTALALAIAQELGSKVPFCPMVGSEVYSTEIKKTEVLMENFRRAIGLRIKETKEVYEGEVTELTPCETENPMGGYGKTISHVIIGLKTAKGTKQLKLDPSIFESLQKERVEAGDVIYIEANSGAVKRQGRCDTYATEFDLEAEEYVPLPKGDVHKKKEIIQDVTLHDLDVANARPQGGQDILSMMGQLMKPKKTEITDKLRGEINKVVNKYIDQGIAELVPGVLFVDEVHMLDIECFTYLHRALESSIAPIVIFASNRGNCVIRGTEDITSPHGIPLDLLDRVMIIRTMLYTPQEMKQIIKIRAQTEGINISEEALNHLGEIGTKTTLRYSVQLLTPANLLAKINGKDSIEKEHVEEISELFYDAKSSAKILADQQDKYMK
UniProt P57060: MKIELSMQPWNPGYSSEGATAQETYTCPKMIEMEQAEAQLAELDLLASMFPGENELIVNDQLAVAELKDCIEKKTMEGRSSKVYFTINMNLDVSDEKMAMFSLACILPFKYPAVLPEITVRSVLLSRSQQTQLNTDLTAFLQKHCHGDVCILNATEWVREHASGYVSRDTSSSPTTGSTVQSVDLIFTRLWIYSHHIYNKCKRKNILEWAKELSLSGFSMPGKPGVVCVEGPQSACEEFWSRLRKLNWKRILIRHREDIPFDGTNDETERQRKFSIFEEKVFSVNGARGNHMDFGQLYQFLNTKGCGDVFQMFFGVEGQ
UniProt P55735: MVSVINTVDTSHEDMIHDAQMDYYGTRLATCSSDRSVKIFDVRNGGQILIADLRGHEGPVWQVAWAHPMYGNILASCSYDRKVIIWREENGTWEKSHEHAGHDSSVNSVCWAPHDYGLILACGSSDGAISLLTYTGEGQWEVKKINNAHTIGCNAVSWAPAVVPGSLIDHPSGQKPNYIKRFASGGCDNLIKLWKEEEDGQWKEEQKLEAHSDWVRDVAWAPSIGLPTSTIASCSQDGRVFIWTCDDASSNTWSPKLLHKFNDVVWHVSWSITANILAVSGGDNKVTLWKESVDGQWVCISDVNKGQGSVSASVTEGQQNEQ
UniProt Q9BY50: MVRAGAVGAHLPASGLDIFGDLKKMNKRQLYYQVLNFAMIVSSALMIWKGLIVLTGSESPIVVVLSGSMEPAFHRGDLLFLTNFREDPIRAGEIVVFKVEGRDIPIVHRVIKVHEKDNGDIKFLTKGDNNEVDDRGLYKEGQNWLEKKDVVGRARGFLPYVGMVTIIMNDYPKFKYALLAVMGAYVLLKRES

Compound: c1cn2cc(-c3ccc4cn[nH]c4c3)nc(Nc3ccc(N4CCOCC4)cc3)c2n1 [entospletinib]
Test: log2 fold change, soluble protein after heating vs DMSO (PISA); higher = thermal stabilisation; K562 cells, 10 uM, 30 min; active = over 0.2 and 3.5 SD of the protein, either way, in both replicates (recomputed)
In short: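 Soluble protein was defined as the supernatant after 21,000xg for 90 min. It came from K562 cells at 2×10^6 cells/mL given 10 μM compound for 30 min, heated in aliquots for 3 min across 48°C-58°C, pooled, and extracted in PBS with 0.5% NP-40 at 4°C, and was quantified by TMTpro 16plex LC-MS/MS with equalised channel sums. Thermal stability against control samples, from duplicates, is reported as log2 fold change.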

Target | log2 fold change
SDF2L1 (UniProt Q9HCN8) | inactive: 0.016
SDSL (UniProt Q96GA7) | inactive: -0.018
SDHB, A0A087WWT1 | inactive: 0.055
RRP15 (UniProt Q9Y3B9) | inactive: -0.036
SARNP (UniProt P82979) | inactive: 0.016
SDHA (UniProt P31040) | inactive: -0.039
RWDD4 (UniProt Q6NW29) | inactive: -0.072
SEC11A isoform 3 (UniProt P67812) | inactive: -0.039
RTCB (UniProt Q9Y3I0) | inactive: 0.021
SEC14L1 isoform 2 (UniProt Q92503) | inactive: 0.172
RTN4 (UniProt Q9NQC3) | inactive: -0.047
SACS (UniProt Q9NZJ4) | inactive: -0.026
RUVBL2 (UniProt Q9Y230) | inactive: 0.063
SCO1 (UniProt O75880) | inactive: -0.022
SAR1B (UniProt Q9Y6B6) | inactive: -0.001
SBSN (UniProt Q6UWP8) | inactive: -0.052

Target | log2 fold change
SBNO1 (UniProt A3KN83) | inactive: 0.006
RUVBL1 (UniProt Q9Y265) | inactive: 0.061
SCRN3 (UniProt Q0VDG4) | inactive: 0.015
RWDD2B (UniProt P57060) | inactive: 0.073
SCFD2 (UniProt Q8WU76) | inactive: 0.152
SEC13 isoform 3 (UniProt P55735) | inactive: 0.013
SCNM1 (UniProt Q9BWG6) | inactive: -0.12
RTN3 (UniProt O95197) | inactive: -0.055
S100A4 (UniProt P26447) | inactive: -0.226
S100A6 (UniProt P06703) | inactive: -0.081
SAMHD1 (UniProt Q9Y3Z3) | inactive: -0.108
SEC11C (UniProt Q9BY50) | inactive: -0.077
S100P (UniProt P25815) | inactive: 0.021
RTF1 (UniProt Q92541) | inactive: -0.003
RSBN1L (UniProt Q6PCB5) | inactive: 0.067

Look-ups from the entries so far:
For log2 fold change, SDHB, A0A087WWT1 is entered as inactive: 0.055
For log2 fold change, RSBN1L (UniProt Q6PCB5) is entered as inactive: 0.067
